This continues a long series; more values of the same kind are listed elsewhere.
Test: Pharmacokinetics of oral nafamostat mesylate solution in healthy male and female subjects
Assay type: in vivo
Settings: human, 200 mg dose level, Day 4, 0 h post-dose, individual subjects, listed as NM, dimethanesulfonate
Procedure: Part 1: Single Ascending Dose Study. Male and female subjects aged 18 - 70 were administered a single dose of 50 mg nafamostat mesylate on day 1, 100 mg nafamostat mesylate on day 3 or 4, and 200 mg nafamostat mesylate on day 5, 6, or 7. Nafamostat mesylate was administered in the form of an oral solution. […]
Part 2: Multiple Ascending Dose Study. Subjects were divided into 2 cohorts. Cohort 1 received an oral solution of 100 mg/mL nafamostat mesylate twice a day for 5 days with pharmacokinetic evaluations on each day. […] Safety evaluations continued for 48 hours after the last dose. After review and evidence of safety, Cohort 2 received an oral solution of 200 mg/mL nafamostat mesylate twice a day for 5 days with pharmacokinetic evaluations on each day. […] Safety evaluations continued for 48 hours after the last dose.
Part 3: Single Fixed Dose Administered Twice Daily for 5 Days. Six subjects, different than the subjects from Parts 1 and 2, received an oral solution of 200 mg/mL nafamostat mesylate twice a day for 5 days. Blood samples were obtained at pre-dose (0 hr.) and at 0.5, 1, 2, 3, 4, 6, and 8 hours after the first dose on Day 1 and again after the first dose on Day 5. […]
Nafamostat pharmacokinetics was evaluated at the 200 mg dose levels.

CS(=O)(=O)O.CS(=O)(=O)O.N=C(N)Nc1ccc(C(=O)Oc2ccc3cc(C(=N)N)ccc3c2)cc1 [nafamostat mesylate, 6-amidino-2-naphthyl p-guanidinobenzoate dimethanesulfonate]
NM: 0.457 ng/mL

Reference: US20230190697A1, “METHODS FOR TREATING VIRAL INFECTIONS WITH NAFAMOSTAT” (priority 2020, published 2023)
